The values below come from paper PMC7363444.

Chains of the proteins cited; added tags and fusions are not shown.
UniProt P21333: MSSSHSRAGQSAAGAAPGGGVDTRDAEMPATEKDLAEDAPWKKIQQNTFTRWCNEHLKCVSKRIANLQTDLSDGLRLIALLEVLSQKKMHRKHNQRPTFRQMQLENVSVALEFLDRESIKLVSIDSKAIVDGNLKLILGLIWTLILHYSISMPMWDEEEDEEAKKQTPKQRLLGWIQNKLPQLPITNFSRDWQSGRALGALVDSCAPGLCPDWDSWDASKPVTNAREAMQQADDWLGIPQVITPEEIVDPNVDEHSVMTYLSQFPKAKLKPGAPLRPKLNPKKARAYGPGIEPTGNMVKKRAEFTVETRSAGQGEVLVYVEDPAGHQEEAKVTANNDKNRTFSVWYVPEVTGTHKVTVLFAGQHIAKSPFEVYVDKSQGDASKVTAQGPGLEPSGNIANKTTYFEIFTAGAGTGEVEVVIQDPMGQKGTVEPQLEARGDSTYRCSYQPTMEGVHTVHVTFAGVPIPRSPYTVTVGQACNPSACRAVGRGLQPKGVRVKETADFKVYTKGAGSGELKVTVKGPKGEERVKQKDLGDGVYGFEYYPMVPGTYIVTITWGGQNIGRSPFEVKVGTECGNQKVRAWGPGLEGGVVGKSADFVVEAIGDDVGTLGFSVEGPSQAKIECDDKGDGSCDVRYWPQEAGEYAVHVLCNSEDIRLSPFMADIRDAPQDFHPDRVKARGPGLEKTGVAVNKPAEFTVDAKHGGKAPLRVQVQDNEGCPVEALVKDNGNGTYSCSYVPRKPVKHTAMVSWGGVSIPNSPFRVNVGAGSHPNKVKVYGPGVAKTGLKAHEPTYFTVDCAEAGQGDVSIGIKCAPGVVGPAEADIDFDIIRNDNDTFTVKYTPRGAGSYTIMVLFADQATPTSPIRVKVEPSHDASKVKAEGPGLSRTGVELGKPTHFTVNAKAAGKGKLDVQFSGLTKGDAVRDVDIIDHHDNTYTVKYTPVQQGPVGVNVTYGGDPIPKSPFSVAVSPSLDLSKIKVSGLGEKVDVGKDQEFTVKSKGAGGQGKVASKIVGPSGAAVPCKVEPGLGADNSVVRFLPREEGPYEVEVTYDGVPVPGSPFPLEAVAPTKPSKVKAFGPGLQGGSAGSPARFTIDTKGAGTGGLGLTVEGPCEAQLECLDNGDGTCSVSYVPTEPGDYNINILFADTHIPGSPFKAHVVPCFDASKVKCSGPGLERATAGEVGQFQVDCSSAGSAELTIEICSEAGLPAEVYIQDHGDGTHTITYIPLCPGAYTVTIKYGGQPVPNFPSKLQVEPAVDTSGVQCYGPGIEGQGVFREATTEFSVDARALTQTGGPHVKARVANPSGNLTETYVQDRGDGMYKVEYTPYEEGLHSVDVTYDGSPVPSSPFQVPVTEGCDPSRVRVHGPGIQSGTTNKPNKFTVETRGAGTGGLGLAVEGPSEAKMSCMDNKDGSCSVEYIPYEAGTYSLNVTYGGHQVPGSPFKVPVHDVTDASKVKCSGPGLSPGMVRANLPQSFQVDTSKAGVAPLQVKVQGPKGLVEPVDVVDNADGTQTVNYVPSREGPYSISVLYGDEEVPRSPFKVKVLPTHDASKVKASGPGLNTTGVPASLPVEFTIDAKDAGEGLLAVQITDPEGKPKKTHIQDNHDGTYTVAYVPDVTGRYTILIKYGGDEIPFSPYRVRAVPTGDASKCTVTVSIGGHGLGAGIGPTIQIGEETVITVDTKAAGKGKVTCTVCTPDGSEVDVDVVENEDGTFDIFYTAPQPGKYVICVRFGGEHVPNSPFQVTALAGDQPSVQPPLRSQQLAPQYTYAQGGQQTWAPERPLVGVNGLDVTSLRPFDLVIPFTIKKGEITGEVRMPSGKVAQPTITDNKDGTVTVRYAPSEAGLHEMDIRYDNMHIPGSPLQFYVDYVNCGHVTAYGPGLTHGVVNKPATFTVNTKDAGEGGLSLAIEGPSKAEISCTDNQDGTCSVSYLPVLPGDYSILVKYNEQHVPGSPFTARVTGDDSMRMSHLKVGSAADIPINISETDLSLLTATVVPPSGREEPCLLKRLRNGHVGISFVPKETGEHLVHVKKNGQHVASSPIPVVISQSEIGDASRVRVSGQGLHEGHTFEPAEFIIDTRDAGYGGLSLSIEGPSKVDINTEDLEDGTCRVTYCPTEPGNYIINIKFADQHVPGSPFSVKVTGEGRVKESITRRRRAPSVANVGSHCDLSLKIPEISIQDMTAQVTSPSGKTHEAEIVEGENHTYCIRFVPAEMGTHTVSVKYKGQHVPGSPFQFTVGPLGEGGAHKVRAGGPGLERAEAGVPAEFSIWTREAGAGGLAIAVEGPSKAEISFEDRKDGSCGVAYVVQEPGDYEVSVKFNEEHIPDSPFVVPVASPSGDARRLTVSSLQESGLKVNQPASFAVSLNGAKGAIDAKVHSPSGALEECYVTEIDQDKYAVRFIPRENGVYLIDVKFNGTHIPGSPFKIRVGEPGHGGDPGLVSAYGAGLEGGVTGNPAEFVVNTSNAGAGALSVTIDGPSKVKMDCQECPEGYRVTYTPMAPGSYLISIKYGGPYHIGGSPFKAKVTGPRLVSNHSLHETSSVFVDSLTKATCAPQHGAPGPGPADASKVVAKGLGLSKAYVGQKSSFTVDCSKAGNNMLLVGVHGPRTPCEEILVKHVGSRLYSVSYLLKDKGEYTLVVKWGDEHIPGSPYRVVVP

The test concerns the target T1, LUZP1-YFP (human) (UniProt Q86V48).
T1 sequence: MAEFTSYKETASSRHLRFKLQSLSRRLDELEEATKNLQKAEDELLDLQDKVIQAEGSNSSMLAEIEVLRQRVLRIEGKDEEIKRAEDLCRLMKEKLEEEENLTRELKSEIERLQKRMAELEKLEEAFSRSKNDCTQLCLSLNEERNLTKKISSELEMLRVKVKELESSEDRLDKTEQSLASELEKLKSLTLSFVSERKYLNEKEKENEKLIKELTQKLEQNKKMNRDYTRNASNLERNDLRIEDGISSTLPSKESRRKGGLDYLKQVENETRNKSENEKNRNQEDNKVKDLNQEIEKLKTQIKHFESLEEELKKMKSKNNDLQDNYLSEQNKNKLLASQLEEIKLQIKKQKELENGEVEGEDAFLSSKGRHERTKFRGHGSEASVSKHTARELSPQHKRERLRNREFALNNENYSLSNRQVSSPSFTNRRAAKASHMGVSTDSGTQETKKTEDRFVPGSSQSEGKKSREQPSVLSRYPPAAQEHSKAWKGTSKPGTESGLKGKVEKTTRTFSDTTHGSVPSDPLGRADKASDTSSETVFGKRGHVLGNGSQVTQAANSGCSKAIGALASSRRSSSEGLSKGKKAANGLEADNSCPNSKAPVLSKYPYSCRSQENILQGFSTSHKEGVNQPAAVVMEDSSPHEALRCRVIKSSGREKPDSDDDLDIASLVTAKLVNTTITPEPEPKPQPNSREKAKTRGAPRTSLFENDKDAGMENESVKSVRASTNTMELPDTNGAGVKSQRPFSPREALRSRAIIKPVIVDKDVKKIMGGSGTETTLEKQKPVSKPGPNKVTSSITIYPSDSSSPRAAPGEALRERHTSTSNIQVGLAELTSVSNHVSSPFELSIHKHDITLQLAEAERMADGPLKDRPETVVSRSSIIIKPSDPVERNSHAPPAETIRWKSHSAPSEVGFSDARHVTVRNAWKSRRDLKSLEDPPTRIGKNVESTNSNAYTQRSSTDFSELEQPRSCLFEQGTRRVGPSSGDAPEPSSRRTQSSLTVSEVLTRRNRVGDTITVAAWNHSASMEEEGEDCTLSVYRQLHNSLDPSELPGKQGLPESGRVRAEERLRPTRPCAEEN
Put plainly: pull-down; GFP-Trap resin on lysates of transfected HEK 293FT cells (WT or 293^335; SALL1^275-YFP with or without co-expressed SALL1^FL-2xHA); 4 °C, lysis 25 mM Tris-HCl pH 7.5, 150 mM NaCl, 1 mM EDTA, 1% NP-40, 0.5% Triton X-100, 5% glycerol; washes with 300 mM NaCl; western blot.

These are yes or no findings as the source states them, for the method shown. In cells and extracts the contact can be indirect. Some results given as binding are weak or reduced against the parent protein; the word gives no strength. Sequences can lack the tags named with a protein.

With “filamin A (endogenous) (from UniProt P21333 1-2647)”, the binding result is “binds”.
